Experimental data published in PMC12784972.
These are yes or no findings as the source states them, for the method shown. Binding seen in cells or lysates may run through a third protein. Some binding calls cover weakened binding; strength is not graded here.

By UniProt entry, the sequences of proteins in these tests, tags left out.
UniProt Q921F2: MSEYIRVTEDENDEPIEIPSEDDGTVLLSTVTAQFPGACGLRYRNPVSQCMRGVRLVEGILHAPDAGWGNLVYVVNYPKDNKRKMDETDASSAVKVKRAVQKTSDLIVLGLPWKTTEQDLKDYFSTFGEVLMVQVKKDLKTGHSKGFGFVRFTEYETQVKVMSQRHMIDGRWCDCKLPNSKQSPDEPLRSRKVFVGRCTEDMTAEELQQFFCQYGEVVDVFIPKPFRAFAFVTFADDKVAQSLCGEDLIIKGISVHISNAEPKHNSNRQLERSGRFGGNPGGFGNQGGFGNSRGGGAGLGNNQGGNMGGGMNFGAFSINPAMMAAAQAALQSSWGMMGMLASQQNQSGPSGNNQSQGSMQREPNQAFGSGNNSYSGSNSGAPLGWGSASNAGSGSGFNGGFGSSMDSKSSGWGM

Biological target: TDP43, endogenous in mouse fully grown oocytes (mouse (endogenous in fully grown oocytes)) (UniProt Q921F2)
Test: co-IP; endogenous IP from fully grown (GV) mouse oocytes; protein A beads coupled with TDP-43 antibody or rabbit IgG (Fig. 8B)

binding: binds
B1: PABPN1, endogenous in mouse fully grown oocytes (protein, UniProt Q8CCS6 1-302)
chain: MAAAAAAAAAAGAAGGRGSGPGRRRHLVPGAGGEAGEGDPGGAGDYGNGLESEELEPGELLPEPEPEEEPPRPRAPPGAPGPGPGSGAPGSQEEEEEPGLVEADPGDGAIEDPELEAIKARVREMEEEAEKLKELQNEVEKQMNMSPPPGNAGPVIMSLEEKMEADARSIYVGNVDYGATAEELEAHFHGCGSVNRVTILCDKFSGHPKGFAYIEFSDKESVRTSLALDESLFRGRQIKVIPKRTNRPGISTTDRGFPRSRYRARTTNYNSSRSRFYSGFNSRPRGRIYRGRARATSWYSPY
